Results are given in words; binding and its absence hold for the method and conditions named. In cells and extracts the contact can be indirect. Some results given as binding are weak or reduced against the parent protein; the word gives no strength. Sequences can lack the tags named with a protein.

The target of this assay is T1, mouse Lmo2 (in vitro translated) (mouse) (UniProt P25801).
T1 sequence: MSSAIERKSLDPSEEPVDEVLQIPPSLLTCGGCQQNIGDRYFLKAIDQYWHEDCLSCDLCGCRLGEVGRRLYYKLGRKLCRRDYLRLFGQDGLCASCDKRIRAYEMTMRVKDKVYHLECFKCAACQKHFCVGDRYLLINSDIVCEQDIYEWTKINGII
Put plainly: co-IP; in vitro: proteins translated in rabbit reticulocyte lysate, used directly; incubated in lysis buffer 1 h at 4 °C, then immunoprecipitated (Etv6, Klf4 or Lmo2 antibodies) on Dynabeads protein A; western blot. Background: In western blotting, separated proteins are transferred to a membrane and probed.

B1: Xenopus Ldb1-Myc (in vitro translated) (protein, UniProt P70060 1-375)
chain: MLDRDVGPTPMYPPTYLEPGIGRHTPYGNQTDYRIFELNKRLQNWTEECDNLWWDAFTTEFFEDDAMLTITFCLEDGPKRYTIGRTLIPRYFRSIFEGGATELYYVLKHPKESFHNNFVSLDCDQCTMVTQHGKPMFTQVCVEGRLYLEFMFDDMMRIKTWHFSIRQHRELIPRSILAMHAQDPQMLDQLSKNITRCGLSNSTLNYLRLCVILEPMQELMSRHKTYSLSPRDCLKTCLFQKWQRMVAPPAEPARQAPSKRRKRKMSGGSTMSSGGGNTNNSNSKKKSPASTFALSSQVPDVMVVGEPTLMGGEFGDEDERLITRLENTQFDAANGIDDEDSFNNSPALGANSPWNSKPPSSQESKSENPTSQASQ
In the case of B1, the binding entry is listed as “binds”.

The record behind these values is article PMC6403364.
